The data set can be described thus: Oxidation of indigo carmine 1 and 18O incorporation into cyclic α-ketoamide 2 by reactive oxygen species.

Consider `O=[O+][O-]` [Clone O3, ozone], for which the “18O incorporation into 2” value (PB 100 mM pH 7.4 with H2 18O (>95%), negative ion ESI-MS) is “yes”. The “Reaction to form 2” value (indigo carmine 1 (1 mM) in PB pH 7.4, room temperature, oxidant conditions per footnotes) is recorded as “Yes”.

The values are drawn from patent US20070009537A1, “Antimicrobial activity of antibodies producing reactive oxygen species” (priority 2002, published 2007).
